Reference: paper PMC4361764, “TatBC-Independent TatA/Tat Substrate Interactions Contribute to Transport Efficiency” (PLoS ONE, 2015)
Results are given in words; binding and its absence hold for the method and conditions named. Binding seen in cells or lysates may run through a third protein.

Chains of the proteins cited; added tags and fusions are not shown. Lines headed by an entry give the natural chain unless they say otherwise; changes in a name come on top.
UniProt P00260: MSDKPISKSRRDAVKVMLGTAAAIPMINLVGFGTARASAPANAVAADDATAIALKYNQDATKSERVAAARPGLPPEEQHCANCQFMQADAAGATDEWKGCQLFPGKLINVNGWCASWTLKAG

Experiments:
[1] = molecular target: HiPIP-T50A precursor with C-terminal His6-tag (Allochromatium vinosum) (UniProt P00260); assay: pull-down; affinity co-purification without detergent: His6-tagged substrate made in E. coli MC4100 with non-recombinant TatA; cells disrupted, soluble fraction, Ni2+-affinity chromatography; co-elution of TatA seen by Western blot
[2] = molecular target: HiPIP-T50D precursor with C-terminal His6-tag (Allochromatium vinosum) (UniProt P00260); assay: as above

B1: Strep-tagged TatA from Escherichia coli (natural protein, UniProt P69428 1-89, looked up)
chain: MGGISIWQLLIIAVIVVLLFGTKKLGSIGSDLGASIKGFKKAMSDDEPKQDKTSQDADFTAKTIADKQADTNQEQAKTEDAKRHDKEQV
notes: TatA of Escherichia coli; The soluble form is a large association of many protomers; also called TatA-strep; soluble TatA-strep; source: E. coli DADE tatA-strep-tatBC (single-copy, wild-type level): in crude soluble extract; or purified from the soluble fraction (Strep-Tactin, Superose 6); not shown: Strep-tag, C-terminal, kept
[1]
  binding: no binding
[2]
  binding: no binding
